Some of the results follow. This is a noisy data set.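 Tm was set to 64 °C where no melting was found, and many curves are irregular.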

Chains of the proteins cited; added tags and fusions are not shown. Lines headed by an entry give the natural chain unless they say otherwise; changes in a name come on top.
UniProt Q8NDF8: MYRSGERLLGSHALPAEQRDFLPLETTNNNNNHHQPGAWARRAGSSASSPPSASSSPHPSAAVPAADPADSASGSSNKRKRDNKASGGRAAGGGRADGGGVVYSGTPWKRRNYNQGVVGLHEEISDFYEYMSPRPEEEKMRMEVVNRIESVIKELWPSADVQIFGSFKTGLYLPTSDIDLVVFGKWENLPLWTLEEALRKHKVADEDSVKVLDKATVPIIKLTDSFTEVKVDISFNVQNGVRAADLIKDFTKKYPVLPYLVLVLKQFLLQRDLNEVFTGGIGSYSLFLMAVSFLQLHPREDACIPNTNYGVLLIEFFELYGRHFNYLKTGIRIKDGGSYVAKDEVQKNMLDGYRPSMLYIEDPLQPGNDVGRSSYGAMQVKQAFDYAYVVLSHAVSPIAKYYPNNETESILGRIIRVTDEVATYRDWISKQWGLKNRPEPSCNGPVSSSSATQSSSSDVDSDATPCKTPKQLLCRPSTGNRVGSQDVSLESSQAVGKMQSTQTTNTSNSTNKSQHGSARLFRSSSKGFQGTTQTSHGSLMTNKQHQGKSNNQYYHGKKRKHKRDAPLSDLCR
UniProt Q8NCE2: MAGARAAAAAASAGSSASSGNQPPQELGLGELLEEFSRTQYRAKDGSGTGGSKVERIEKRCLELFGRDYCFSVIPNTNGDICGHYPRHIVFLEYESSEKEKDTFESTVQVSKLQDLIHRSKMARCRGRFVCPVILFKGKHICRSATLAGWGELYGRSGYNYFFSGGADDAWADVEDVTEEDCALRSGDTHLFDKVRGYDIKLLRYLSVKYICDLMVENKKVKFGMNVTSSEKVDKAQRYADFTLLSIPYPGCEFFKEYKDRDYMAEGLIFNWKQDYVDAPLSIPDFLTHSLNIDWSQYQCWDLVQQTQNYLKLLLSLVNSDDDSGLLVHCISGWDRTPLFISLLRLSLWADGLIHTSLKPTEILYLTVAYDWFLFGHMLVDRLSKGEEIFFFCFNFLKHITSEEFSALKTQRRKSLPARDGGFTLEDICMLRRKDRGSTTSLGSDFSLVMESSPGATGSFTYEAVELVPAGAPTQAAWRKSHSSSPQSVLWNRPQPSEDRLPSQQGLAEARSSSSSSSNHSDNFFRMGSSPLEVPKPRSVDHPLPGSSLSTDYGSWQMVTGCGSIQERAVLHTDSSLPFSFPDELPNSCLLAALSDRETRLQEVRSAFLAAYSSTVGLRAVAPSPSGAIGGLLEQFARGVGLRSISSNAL
UniProt Q8NCM8: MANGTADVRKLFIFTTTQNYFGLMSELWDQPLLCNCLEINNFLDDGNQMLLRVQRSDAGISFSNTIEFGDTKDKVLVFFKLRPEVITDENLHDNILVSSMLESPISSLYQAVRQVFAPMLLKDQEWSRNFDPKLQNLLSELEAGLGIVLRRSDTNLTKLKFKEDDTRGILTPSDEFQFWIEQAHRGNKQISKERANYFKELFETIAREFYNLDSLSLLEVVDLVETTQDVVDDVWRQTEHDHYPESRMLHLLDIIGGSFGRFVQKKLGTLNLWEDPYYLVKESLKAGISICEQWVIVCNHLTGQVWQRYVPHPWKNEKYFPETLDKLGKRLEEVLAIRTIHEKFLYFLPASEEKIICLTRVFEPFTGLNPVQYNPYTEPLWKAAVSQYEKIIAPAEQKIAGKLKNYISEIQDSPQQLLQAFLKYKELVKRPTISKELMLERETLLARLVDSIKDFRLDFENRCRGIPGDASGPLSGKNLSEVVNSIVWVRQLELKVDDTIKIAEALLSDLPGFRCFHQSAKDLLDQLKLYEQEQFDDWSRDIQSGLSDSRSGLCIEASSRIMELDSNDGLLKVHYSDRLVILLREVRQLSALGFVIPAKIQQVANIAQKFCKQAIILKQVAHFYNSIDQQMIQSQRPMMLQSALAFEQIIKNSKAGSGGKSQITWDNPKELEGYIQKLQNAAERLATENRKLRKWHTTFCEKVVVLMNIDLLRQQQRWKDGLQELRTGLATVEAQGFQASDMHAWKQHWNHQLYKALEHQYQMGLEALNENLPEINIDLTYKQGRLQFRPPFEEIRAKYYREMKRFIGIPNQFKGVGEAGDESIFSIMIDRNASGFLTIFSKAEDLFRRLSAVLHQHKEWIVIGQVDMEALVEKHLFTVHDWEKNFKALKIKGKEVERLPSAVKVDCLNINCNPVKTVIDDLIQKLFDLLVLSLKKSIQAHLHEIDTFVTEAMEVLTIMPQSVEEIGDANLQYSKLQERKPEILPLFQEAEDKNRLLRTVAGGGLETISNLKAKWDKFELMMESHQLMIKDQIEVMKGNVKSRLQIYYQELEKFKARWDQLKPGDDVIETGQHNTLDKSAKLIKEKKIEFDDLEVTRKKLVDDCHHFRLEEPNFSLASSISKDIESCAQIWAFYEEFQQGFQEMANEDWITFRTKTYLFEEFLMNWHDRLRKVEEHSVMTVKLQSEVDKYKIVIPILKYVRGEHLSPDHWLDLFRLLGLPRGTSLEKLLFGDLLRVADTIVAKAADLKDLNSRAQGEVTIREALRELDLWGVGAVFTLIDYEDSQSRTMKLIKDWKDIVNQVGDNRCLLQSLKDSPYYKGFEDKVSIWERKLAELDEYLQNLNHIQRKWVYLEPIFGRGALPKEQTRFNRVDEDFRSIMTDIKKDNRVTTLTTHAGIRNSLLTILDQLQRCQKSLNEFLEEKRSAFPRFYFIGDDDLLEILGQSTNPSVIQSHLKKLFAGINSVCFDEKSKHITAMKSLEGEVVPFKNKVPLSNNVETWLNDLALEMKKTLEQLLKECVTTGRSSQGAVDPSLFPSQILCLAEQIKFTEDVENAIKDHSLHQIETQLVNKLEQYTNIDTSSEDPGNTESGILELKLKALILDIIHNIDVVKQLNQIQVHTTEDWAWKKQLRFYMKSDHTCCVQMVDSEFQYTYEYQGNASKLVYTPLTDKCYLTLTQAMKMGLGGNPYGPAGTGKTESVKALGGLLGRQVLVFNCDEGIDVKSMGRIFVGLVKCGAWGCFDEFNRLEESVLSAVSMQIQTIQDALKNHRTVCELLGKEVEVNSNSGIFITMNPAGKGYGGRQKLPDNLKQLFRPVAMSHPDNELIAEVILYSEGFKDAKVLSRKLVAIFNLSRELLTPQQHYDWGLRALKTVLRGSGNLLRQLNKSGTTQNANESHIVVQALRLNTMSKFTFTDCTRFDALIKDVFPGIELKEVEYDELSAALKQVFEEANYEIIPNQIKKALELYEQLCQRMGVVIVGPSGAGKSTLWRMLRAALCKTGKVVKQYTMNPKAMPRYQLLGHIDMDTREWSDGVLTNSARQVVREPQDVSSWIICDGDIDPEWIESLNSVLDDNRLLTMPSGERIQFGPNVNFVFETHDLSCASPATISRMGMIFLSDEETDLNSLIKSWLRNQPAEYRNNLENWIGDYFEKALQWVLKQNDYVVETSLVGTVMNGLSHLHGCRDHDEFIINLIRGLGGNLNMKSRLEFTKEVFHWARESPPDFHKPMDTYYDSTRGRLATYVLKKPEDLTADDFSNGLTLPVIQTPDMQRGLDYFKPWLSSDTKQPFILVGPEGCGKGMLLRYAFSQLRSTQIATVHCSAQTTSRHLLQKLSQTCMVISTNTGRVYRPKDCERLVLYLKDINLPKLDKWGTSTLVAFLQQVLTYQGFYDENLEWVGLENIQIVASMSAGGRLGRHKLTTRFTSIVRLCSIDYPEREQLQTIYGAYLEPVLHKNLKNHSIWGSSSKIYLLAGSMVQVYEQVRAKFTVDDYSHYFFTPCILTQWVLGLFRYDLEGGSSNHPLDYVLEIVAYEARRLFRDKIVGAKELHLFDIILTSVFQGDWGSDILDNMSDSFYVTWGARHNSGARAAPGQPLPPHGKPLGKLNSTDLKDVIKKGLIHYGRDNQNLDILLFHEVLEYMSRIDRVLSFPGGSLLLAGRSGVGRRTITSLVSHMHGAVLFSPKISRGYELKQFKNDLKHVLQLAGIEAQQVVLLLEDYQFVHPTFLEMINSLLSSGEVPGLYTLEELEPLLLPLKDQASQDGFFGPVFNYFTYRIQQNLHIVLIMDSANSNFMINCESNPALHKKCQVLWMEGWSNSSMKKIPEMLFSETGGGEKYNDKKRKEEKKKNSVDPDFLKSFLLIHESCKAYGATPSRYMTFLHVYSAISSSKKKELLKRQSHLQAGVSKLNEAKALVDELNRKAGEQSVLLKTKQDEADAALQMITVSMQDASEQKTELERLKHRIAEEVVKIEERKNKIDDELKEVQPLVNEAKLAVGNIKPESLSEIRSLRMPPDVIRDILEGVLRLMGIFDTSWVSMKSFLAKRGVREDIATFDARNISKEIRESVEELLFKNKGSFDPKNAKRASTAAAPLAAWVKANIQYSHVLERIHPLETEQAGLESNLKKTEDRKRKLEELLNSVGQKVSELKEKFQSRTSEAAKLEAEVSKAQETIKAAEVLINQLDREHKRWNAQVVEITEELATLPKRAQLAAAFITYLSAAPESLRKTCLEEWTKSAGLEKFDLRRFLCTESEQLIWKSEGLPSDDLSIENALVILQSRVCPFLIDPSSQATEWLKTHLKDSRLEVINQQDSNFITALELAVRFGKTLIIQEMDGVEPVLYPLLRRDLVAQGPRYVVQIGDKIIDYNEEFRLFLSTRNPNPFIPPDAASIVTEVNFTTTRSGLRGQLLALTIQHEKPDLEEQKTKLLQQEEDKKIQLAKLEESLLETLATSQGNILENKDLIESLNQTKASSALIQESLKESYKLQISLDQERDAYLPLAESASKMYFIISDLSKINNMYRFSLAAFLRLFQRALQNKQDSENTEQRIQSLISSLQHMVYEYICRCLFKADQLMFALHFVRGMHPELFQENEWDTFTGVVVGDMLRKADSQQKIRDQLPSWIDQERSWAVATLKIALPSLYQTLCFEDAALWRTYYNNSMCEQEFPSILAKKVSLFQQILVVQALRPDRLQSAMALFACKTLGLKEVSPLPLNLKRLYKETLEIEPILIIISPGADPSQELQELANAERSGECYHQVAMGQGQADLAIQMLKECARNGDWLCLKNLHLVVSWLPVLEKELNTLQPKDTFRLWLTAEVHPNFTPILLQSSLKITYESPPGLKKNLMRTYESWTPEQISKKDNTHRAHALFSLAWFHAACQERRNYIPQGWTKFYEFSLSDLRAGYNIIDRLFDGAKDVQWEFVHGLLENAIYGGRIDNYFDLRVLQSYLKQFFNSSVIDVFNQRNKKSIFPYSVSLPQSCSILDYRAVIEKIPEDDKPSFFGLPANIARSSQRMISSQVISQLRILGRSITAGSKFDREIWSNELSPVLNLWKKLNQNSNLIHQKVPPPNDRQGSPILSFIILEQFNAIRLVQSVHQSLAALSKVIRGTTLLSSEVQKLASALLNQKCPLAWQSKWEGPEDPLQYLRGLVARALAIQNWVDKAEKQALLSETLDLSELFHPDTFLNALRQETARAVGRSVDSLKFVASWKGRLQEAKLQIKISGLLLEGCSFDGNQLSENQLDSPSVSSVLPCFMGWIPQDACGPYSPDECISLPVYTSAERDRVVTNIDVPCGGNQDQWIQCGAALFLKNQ
UniProt Q8NBN7: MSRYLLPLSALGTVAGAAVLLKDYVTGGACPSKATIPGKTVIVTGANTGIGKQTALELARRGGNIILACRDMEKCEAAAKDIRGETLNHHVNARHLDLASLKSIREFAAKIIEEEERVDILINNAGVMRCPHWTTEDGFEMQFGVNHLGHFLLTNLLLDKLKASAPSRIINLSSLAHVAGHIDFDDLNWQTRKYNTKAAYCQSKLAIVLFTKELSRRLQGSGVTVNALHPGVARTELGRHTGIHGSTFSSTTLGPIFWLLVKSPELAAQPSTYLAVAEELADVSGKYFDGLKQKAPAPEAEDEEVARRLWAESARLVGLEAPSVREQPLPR
UniProt Q8TED1: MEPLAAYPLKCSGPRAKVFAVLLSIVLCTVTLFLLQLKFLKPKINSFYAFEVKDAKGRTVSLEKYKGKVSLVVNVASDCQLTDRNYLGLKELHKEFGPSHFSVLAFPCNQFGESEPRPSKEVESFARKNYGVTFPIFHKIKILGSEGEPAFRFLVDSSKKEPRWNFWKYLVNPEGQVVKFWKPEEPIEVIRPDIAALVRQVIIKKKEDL
UniProt Q8NFW8: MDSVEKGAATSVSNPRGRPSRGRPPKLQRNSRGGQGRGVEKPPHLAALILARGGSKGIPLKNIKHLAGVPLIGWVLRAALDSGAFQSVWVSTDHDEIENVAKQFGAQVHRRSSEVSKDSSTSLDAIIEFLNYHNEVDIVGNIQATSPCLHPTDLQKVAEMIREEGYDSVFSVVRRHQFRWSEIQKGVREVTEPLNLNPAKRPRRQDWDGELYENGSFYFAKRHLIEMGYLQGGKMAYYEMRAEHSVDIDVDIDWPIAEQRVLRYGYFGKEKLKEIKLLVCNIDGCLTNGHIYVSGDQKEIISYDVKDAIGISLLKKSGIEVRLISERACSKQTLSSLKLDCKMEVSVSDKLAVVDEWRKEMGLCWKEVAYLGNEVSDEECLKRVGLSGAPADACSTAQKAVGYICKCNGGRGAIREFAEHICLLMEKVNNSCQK

Compound in the assay: CCc1cnccc1C(=O)Nc1cc2c(cc1F)NC(=O)CC2
Kind of assay: melting temperature shift (DMSO Tm minus MBE1-treated Tm) in cellular thermal proteome profiling; higher = less thermal stabilization by MBE1 (negative = stabilized by MBE1). Particulars: A375; MBE1 concentration: 100 nM.
Turning to PAPD5 (UniProt Q8NDF8), the melting temperature shift came out at 0.333 °C.

As to SMG8 (UniProt Q8ND04), the melting temperature shift is -0.334 °C.

Take NANP (UniProt Q8TBE9): the melting temperature shift was 0.769 °C.

With MTMR14 (UniProt Q8NCE2), the melting temperature shift is 0.727 °C.

With DYNC2H1 (UniProt Q8NCM8), the melting temperature shift worked out at 3.58 °C.

On to UniProt Q8N9R8, for which the melting temperature shift stood at 1.11 °C.

For the target RDH13 (UniProt Q8NBN7), the melting temperature shift is -0.408 °C.

Take MCFD2 (UniProt Q8NI22): the melting temperature shift was -0.116 °C.

PREX1 (UniProt Q8TCU6): the melting temperature shift was -1.2 °C.

Regarding GPX8 (UniProt Q8TED1), the melting temperature shift was -0.919 °C.

In the case of SCFD2 (UniProt Q8WU76), the melting temperature shift was -1.62 °C.

In the case of MLKL (UniProt Q8NB16), the melting temperature shift came to 0.605 °C.

Turning to PIK3C3 (UniProt Q8NEB9), the melting temperature shift worked out at 0.11 °C.

In the case of DYNC2LI1 (UniProt Q8TCX1), the melting temperature shift is 1.28 °C.

As to PDDC1 (UniProt Q8NB37), the melting temperature shift is -0.861 °C.

As to UniProt Q8NF91, the melting temperature shift was found to be 1.43 °C.

Turning to UniProt Q8TCN5, the melting temperature shift was -1.38 °C.

With PHF10 (UniProt Q8WUB8), the melting temperature shift was -0.41 °C.

PNPT1 (UniProt Q8TCS8): the melting temperature shift came to 0.655 °C.

As for UniProt Q8TCU4, the melting temperature shift is 2.01 °C.

CMAS (UniProt Q8NFW8): the melting temperature shift came out at 0.263 °C.

Take ATAD1 (UniProt Q8NBU5): the melting temperature shift is -0.159 °C.

As to COLGALT1 (UniProt Q8NBJ5), the melting temperature shift was -1.19 °C.

As for ATL2 (UniProt Q8NHH9), the melting temperature shift was -0.276 °C.

In the case of DAGLB (UniProt Q8NCG7), the melting temperature shift is -1.35 °C.

SUMF2 (UniProt Q8NBJ7): the melting temperature shift is -0.879 °C.

For the target NEK7 (UniProt Q8TDX7), the melting temperature shift is -0.055 °C.

For ASCC1 (UniProt Q8N9N2), the melting temperature shift is -0.541 °C.

For UniProt Q8NDA8, the melting temperature shift is -1.25 °C.

Take FAR1 (UniProt Q8WVX9): the melting temperature shift stood at 1.03 °C.

In the case of UniProt Q8TDZ2, the melting temperature shift was -0.234 °C.

In the case of C12ORF29 (UniProt Q8N999), the melting temperature shift is -2 °C.

For the origin of these results see the supplement of paper PMC12595434, “Development of retinoid nuclear receptor pathway antagonists through targeting aldehyde dehydrogenase 1A3” (iScience, 2025).
